Measurements taken from publication doi:10.1101/2020.12.07.414227.
Results are given in words; binding and its absence hold for the method and conditions named. Binding seen in cells or lysates may run through a third protein. Some entries that bind do so weakly or less than the wild type.

T1: NBR1 (mouse (endogenous in BMM)) (UniProt P97432)
T1 sequence: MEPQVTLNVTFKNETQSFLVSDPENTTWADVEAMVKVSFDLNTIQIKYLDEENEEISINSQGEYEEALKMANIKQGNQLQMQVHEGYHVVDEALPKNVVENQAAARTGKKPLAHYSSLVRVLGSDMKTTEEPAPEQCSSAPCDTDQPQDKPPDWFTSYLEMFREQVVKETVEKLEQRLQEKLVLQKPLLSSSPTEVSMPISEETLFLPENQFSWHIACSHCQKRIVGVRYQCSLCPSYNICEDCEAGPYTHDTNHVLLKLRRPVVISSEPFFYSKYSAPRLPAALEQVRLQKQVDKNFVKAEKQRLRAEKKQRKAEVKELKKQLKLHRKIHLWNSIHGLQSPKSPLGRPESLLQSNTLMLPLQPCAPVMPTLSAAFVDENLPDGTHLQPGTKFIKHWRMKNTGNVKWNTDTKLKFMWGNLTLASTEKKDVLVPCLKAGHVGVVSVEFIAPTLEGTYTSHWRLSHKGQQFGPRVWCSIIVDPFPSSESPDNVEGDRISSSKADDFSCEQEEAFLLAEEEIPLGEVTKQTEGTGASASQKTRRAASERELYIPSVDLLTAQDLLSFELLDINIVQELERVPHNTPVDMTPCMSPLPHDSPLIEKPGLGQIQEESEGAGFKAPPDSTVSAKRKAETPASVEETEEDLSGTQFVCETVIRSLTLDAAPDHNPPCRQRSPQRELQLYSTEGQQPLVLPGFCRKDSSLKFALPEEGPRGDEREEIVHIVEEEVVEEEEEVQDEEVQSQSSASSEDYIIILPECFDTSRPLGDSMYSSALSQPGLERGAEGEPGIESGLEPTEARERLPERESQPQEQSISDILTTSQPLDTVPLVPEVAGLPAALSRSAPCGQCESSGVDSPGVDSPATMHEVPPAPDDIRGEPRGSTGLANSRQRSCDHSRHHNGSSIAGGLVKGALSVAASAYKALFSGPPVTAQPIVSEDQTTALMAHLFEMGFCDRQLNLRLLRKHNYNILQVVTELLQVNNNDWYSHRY

T2: IL-12p35 (mouse (endogenous in BMM)) (UniProt P43431)
T2 sequence: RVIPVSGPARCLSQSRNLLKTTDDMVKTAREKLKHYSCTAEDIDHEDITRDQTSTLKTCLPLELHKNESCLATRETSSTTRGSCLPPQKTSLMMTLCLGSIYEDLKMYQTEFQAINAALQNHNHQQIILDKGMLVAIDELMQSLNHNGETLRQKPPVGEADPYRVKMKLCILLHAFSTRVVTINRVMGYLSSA


What was measured:
[1] = molecular target: T1, NBR1 (mouse (endogenous in BMM)); experiment: co-IP
[2] = molecular target: T2, IL-12p35 (mouse (endogenous in BMM)); experiment: co-IP

Row | binding [1] | binding [2] | Binder
1 | binds |  | IL-12p35 (protein, UniProt P43431 23-215) RVIPVSGPARCLSQSRNLLKTTDDMVKTAREKLKHYSCTAEDIDHEDITRDQTSTLKTCLPLELHKNESCLATRETSSTTRGSCLPPQKTSLMMTLCLGSIYEDLKMYQTEFQAINAALQNHNHQQIILDKGMLVAIDELMQSLNHNGETLRQKPPVGEADPYRVKMKLCILLHAFSTRVVTINRVMGYLSSA
2 | binds | binds | IL-12p40 (protein, UniProt P43432 23-335) MWELEKDVYVVEVDWTPDAPGETVNLTCDTPEEDDITWTSDQRHGVIGSGKTLTITVKEFLDAGQYTCHKGGETLSHSHLLLHKKENGIWSTEILKNFKNKTFLKCEAPNYSGRFTCSWLVQRNMDLKFNIKSSSSSPDSRAVTCGMASLSAEKVTLDQRDYEKYSVSCQEDVTCPTAEETLPIELALEARQQNKYENYSTSFFIRDIIKPDPPKNLQMKPLKNSQVEVSWEYPDSWSTPHSYFSLKFFVRIQRKKEKMKETEEGCNQKGAFLVEKTSTEVQCKGGNVCVQAQDRYYNSSCSKWACVPCRVRS
